The target of assay [1] is VN-HOXA9 (human) (UniProt P31269). The experiment in a line: split reporter; individual BiFC in live HEK293T cells: plix-VN-HOXA9, plix-CC-ORF and plix-mCherry co-transfected, 18 h with doxycycline 100 ng/mL, confocal imaging; HOXA9/PBX1 as calibrator.
The next assay deals with HA-HOXA9 (human) (UniProt P31269). The experiment in a line: co-IP; HEK-293T co-transfected with HA-tagged HOX and CC-ORF, doxycycline 200 ng/mL, 48 h; NP40 buffer (20 mM Tris pH 7.5, 150 mM NaCl, 2 mM EDTA, 1% NP40), Benzonase; anti-HA magnetic beads; CC-ORF revealed with anti-GFP.
Assay [2] concerns the target VN-HOXA9 (human) (UniProt P31269). The experiment in a line: split reporter; Cell-PCA screen: VN-HOX bait plasmid transfected into CC-HEK-1 and CC-HEK-2 cells with the integrated CC-ORF library (basal TRE expression); BiFC-positive cells sorted by flow cytometry 18 h after transfection, ORFs identified by NGS; hits by log2FC >= 1.5 in both lines or >= 6 in one.
Assay [3] deals with VN-HOXA1 (human) (UniProt P49639). The assay is described as above.
For assay [4] the target is unchanged. The description is as above. The source holds these as a separate data set.
The next assay deals with VN-HOXC8 (human) (UniProt P31273). The assay is described as above.
Assay [5] deals with VN-HOXA9 (human) (UniProt P31269). The assay is described as above. This is another data set of the same source.
In a further assay the target is VN-HOXC6 (human) (UniProt P09630). The assay is described as above.
Assay [6] concerns the target VN-HOXB13 (human) (UniProt Q92826). The experiment in a line: split reporter; individual BiFC of VN-HOXB13 and CC-CREB3L4 in fixed HEK293T cells, mCherry reporter and DAPI, confocal imaging.
In the next assay the target is HA-HOXB13 (human) (UniProt Q92826). The assay can be described thus: co-IP; HEK-293T co-transfected with HA-tagged HOX and CC-ORF, doxycycline 200 ng/mL, 48 h; NP40 buffer (20 mM Tris pH 7.5, 150 mM NaCl, 2 mM EDTA, 1% NP40), Benzonase; anti-HA magnetic beads; CC-ORF revealed with anti-GFP.
Assay [7] addresses VN-HOXB13 (human) (UniProt Q92826). The assay can be described thus: split reporter; Cell-PCA screen: VN-HOX bait plasmid transfected into CC-HEK-1 and CC-HEK-2 cells with the integrated CC-ORF library (basal TRE expression); BiFC-positive cells sorted by flow cytometry 18 h after transfection, ORFs identified by NGS; hits by log2FC >= 1.5 in both lines or >= 6 in one. Background: In flow cytometry, cells or beads pass a laser one at a time.

Sequences of proteins named here, by UniProt entry; tags and fusion partners are left off.
UniProt P31269: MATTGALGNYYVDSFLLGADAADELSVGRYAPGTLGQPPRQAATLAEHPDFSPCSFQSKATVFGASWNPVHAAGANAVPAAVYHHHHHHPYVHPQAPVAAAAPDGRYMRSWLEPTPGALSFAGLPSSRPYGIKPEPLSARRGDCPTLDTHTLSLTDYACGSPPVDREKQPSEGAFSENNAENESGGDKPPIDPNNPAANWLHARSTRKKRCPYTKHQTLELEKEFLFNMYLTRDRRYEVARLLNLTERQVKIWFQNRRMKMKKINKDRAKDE
UniProt P49639: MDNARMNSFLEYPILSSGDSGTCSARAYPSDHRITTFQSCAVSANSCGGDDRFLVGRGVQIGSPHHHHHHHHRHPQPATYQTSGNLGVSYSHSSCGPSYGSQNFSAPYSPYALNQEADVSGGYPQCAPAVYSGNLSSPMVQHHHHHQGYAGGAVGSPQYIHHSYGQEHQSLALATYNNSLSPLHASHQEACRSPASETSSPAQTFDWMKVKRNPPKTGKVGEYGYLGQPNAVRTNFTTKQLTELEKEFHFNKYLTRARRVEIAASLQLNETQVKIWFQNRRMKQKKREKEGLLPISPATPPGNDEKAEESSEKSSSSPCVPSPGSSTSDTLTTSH
UniProt P31273: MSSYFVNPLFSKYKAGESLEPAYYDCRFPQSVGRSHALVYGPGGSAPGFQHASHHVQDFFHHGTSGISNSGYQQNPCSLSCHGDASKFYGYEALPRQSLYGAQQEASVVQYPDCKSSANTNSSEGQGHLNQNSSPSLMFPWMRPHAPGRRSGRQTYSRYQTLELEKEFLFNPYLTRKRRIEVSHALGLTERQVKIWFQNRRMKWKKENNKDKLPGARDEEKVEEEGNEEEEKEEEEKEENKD
UniProt P09630: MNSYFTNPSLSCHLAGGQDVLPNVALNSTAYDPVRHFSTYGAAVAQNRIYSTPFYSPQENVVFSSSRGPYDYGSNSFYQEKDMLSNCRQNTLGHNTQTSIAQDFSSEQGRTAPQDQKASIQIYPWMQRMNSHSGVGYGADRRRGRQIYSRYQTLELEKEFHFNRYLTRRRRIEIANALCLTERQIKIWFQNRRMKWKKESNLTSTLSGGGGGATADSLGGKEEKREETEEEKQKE
UniProt Q92826: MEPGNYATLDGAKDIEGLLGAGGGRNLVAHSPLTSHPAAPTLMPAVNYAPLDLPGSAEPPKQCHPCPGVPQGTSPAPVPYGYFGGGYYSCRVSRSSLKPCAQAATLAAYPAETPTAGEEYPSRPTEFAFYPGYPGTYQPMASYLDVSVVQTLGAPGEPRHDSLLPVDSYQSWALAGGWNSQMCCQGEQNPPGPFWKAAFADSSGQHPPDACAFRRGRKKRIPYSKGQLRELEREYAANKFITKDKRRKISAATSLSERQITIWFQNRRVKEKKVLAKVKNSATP
UniProt P78337: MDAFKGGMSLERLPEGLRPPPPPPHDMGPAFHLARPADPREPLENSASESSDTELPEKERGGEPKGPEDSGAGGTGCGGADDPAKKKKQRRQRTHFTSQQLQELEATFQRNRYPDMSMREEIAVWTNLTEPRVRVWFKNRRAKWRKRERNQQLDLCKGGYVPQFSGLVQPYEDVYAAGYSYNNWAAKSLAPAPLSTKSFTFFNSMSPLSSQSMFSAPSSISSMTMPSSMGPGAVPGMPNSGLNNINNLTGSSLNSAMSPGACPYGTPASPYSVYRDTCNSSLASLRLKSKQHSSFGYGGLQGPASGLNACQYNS
UniProt Q99612: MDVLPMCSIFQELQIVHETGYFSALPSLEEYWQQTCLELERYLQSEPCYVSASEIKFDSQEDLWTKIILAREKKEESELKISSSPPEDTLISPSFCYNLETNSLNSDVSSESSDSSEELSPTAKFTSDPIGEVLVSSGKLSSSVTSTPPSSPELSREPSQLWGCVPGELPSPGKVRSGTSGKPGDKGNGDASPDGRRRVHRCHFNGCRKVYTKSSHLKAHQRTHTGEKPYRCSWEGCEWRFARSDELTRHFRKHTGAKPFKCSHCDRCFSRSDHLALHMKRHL
UniProt Q96F45: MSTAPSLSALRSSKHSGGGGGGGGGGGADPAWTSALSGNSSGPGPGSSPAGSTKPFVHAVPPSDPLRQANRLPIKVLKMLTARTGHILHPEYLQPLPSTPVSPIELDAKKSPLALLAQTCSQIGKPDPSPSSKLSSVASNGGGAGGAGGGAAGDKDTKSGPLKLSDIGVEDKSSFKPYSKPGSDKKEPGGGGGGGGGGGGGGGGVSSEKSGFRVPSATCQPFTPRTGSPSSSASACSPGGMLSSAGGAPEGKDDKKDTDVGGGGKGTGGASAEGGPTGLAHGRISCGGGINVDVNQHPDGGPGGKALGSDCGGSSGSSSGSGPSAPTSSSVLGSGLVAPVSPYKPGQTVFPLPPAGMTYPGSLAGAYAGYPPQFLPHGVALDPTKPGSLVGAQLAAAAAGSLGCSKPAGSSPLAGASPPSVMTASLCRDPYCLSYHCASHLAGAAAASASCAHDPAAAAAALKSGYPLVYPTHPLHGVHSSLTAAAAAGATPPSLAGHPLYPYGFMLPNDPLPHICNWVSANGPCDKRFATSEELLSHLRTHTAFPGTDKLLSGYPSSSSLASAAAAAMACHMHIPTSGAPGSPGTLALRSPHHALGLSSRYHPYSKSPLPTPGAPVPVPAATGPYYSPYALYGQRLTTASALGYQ

Where two headings read alike, the source gives them in different places. No constants are given. Whether binding was seen depends on the method and setting. In cells and extracts the contact can be indirect. Some binding calls cover weakened binding; strength is not graded here.

Take CC-PITX1 (from UniProt P78337 1-314): the binding entry in the assay with VN-HOXA9 (human) [1], with HA-HOXA9 (human) and with VN-HOXA9 (human) [2] was “binds” in each case.
Turning to CC-KLF6 (from UniProt Q99612 1-283), the binding result with VN-HOXA9 (human) [1], in the assay with HA-HOXA9 (human) and with VN-HOXA9 (human) [2] was “binds” in each case.
As for CC-ZNF503 (from UniProt Q96F45 1-646), the binding entry in the assay with VN-HOXA1 (human) [3] was “binds”.

B1: CC-MEIS2 (protein, UniProt O14770 1-477)
chain: MAQRYDELPHYGGMDGVGVPASMYGDPHAPRPIPPVHHLNHGPPLHATQHYGAHAPHPNVMPASMGSAVNDALKRDKDAIYGHPLFPLLALVFEKCELATCTPREPGVAGGDVCSSDSFNEDIAVFAKQVRAEKPLFSSNPELDNLMIQAIQVLRFHLLELEKVHELCDNFCHRYISCLKGKMPIDLVIDERDGSSKSDHEELSGSSTNLADHNPSSWRDHDDATSTHSAGTPGPSSGGHASQSGDNSSEQGDGLDNSVASPGTGDDDDPDKDKKRQKKRGIFPKVATNIMRAWLFQHLTHPYPSEEQKKQLAQDTGLTILQVNNWFINARRRIVQPMIDQSNRAGFLLDPSVSQGAAYSPEGQPMGSFVLDGQQHMGIRPAGLQSMPGDYVSQGGPMGMSMAQPSYTPPQMTPHPTQLRHGPPMHSYLPSHPHHPAMMMHGGPPTHPGMTMSAQSPTMLNSVDPNVGGQVMDIHAQ
For the molecule B1, the binding result in the assay with VN-HOXA1 (human) [4] and in the assay with VN-HOXC8 (human) was “binds” throughout.

B2: CC-NRF1 (protein, UniProt Q16656 1-503)
chain: MEEHGVTQTEHMATIEAHAVAQQVQQVHVATYTEHSMLSADEDSPSSPEDTSYDDSDILNSTAADEVTAHLAAAGPVGMAAAAAVATGKKRKRPHVFESNPSIRKRQQTRLLRKLRATLDEYTTRVGQQAIVLCISPSKPNPVFKVFGAAPLENVVRKYKSMILEDLESALAEHAPAPQEVNSELPPLTIDGIPVSVDKMTQAQLRAFIPEMLKYSTGRGKPGWGKESCKPIWWPEDIPWANVRSDVRTEEQKQRVSWTQALRTIVKNCYKQHGREDLLYAFEDQQTQTQATATHSIAHLVPSQTVVQTFSNPDGTVSLIQVGTGATVATLADASELPTTVTVAQVNYSAVADGEVEQNWATLQGGEMTIQTTQASEATQAVASLAEAAVAASQEMQQGATVTMALNSEAAAHAVATLAEATLQGGGQIVLSGETAAAVGALTGVQDANGLVQIPVSMYQTVVTSLAQGNGPVQVAMAPVTTRISDSAVTMDGQAVEVVTLEQ
For the molecule B2, the binding result with VN-HOXA9 (human) [1], with HA-HOXA9 (human) and in the assay with VN-HOXA9 (human) [5] was “binds” each time.

B3: CC-PBX3 (protein, UniProt P40426 1-434)
chain: MDDQSRMLQTLAGVNLAGHSVQGGMALPPPPHGHEGADGDGRKQDIGDILHQIMTITDQSLDEAQAKKHALNCHRMKPALFSVLCEIKEKTGLSIRGAQEEDPPDPQLMRLDNMLLAEGVSGPEKGGGSAAAAAAAAASGGSSDNSIEHSDYRAKLTQIRQIYHTELEKYEQACNEFTTHVMNLLREQSRTRPISPKEIERMVGIIHRKFSSIQMQLKQSTCEAVMILRSRFLDARRKRRNFSKQATEILNEYFYSHLSNPYPSEEAKEELAKKCSITVSQVSNWFGNKRIRYKKNIGKFQEEANLYAAKTAVTAAHAVAAAVQNNQTNSPTTPNSGSSGSFNLPNSGDMFMNMQSLNGDSYQGSQVGANVQSQVDTLRHVINQTGGYSDGLGGNSLYSPHNLNANGGWQDATTPSSVTSPTEGPGSVHSDTSN
Take B3: the binding result in the assay with VN-HOXC6 (human) is given as “binds”.

B4: CC-CREB3L4 (protein, UniProt Q8TEY5 1-395)
chain: MDLGIPDLLDAWLEPPEDIFSTGSVLELGLHCPPPEVPVTRLQEQGLQGWKSGGDRGCGLQESEPEDFLKLFIDPNEVYCSEASPGSDSGISEDPCHPDSPPAPRATSSPMLYEVVYEAGALERMQGETGPNVGLISIQLDQWSPAFMVPDSCMVSELPFDAHAHILPRAGTVAPVPCTTLLPCQTLFLTDEEKRLLGQEGVSLPSHLPLTKAEERVLKKVRRKIRNKQSAQDSRRRKKEYIDGLESRVAACSAQNQELQKKVQELERHNISLVAQLRQLQTLIAQTSNKAAQTSTCVLILLFSLALIILPSFSPFQSRPEAGSEDYQPHGVTSRNILTHKDVTENLETQVVESRLREPPGAKDANGSTRTLLEKMGGKPRPSGRIRSVLHADEM
Consider B4, for which the binding result with VN-HOXB13 (human) [6], in the assay with HA-HOXB13 (human) and with VN-HOXB13 (human) [7] was “binds” each time.

Values taken from PMC9818449.
